PubChem BioAssay AID1259308 | NCATS | 2017
Purpose: 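Genes whose loss raises luciferase production in HEK293 cells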 (primary screen). Cell system: human HEK293 embryonic kidney cells stably expressing firefly luciferase (HEK-CMV-Luc2-Hygro). Knock-down reagent: single siRNA against human genes, 0.8 pmol siRNA per well. Time to read-out: 72 h. Read-out: 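Reporter luminescence and viable-cell signal on separate replicate plates, given as percent of non-targeting control and median/MAD z-scores, plus per-cell luciferase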. Direction: total luciferase, z-score and total luciferase, % of control: higher = more reporter protein produced. Call rule: 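Active when the median/MAD z-score for overall luciferase is greater than 3; a gene was taken forward for validation with new siRNAs if at least two of its three siRNAs passed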. Meaning of the calls: active = raised luciferase; inactive = no rise.
In all, the deposit lists about 59,000 reagents; below is a random part of them. About 1,510 of all reagents (2.6%) were called active. 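Calls use total luciferase alone and ignore viability, so some active siRNAs may act by altering cell number.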 Unmarked entries are inactive. Reagents against one gene are numbered here. Further read-outs or replicates are left out here.

no.	Gene	siRNA no.	total luciferase, z-score	total luciferase, % of control
1	NICN1 (GeneID 84276)	1	-0.361	74.7
2	NICN1 (GeneID 84276)	2	-1.35	55
3	NICN1 (GeneID 84276)	3	-1.17	58.6
4	FAM86B2 (GeneID 653333)	1	1.6	114
5	FAM86B2 (GeneID 653333)	2	-0.107	79.8
6	FAM86B2 (GeneID 653333)	3	-2.06	40.8
7	ARID1B (GeneID 57492)	1	-0.266	76.6
8	ARID1B (GeneID 57492)	2	-1.41	53.9
9	ARID1B (GeneID 57492)	3	0.725	96.3
10	ATG101 (GeneID 60673)	1	0.74	96.6
11	ATG101 (GeneID 60673)	2	2.07	123
12	ATG101 (GeneID 60673)	3	0.345	88.7
13	SETD6 (GeneID 79918)	1	-1.14	59.1
14	SETD6 (GeneID 79918)	2	-0.231	77.3
15	SETD6 (GeneID 79918)	3	1.53	112
16	VPS41 (GeneID 27072)	1	-0.00798	81.7
17	VPS41 (GeneID 27072)	2	0.0844	83.6
18	VPS41 (GeneID 27072)	3	-0.317	75.6
19	KCNG3 (GeneID 170850)	1	0.0381	82.6
20	KCNG3 (GeneID 170850)	2	-0.122	79.5
21	KCNG3 (GeneID 170850)	3	2.19	125
22	MTHFS (GeneID 10588)	1	0.467	91.2
23	MTHFS (GeneID 10588)	2	-0.355	74.8
24	MTHFS (GeneID 10588)	3	-1.45	53.1

Look-ups from above.
For “total luciferase, % of control”, MTHFS (GeneID 10588) #2 reads 74.8
KCNG3 (GeneID 170850) #2, total luciferase, % of control: 79.5
